From article PMC5666316
These are yes or no findings as the source states them, for the method shown. In cells and extracts the contact can be indirect. Some results given as binding are weak or reduced against the parent protein; the word gives no strength. Values belong to the molecule of their own block, whether it stands above or below them.

The chains behind the UniProt entries cited, without tags or fusion partners.
UniProt Q9EPK8: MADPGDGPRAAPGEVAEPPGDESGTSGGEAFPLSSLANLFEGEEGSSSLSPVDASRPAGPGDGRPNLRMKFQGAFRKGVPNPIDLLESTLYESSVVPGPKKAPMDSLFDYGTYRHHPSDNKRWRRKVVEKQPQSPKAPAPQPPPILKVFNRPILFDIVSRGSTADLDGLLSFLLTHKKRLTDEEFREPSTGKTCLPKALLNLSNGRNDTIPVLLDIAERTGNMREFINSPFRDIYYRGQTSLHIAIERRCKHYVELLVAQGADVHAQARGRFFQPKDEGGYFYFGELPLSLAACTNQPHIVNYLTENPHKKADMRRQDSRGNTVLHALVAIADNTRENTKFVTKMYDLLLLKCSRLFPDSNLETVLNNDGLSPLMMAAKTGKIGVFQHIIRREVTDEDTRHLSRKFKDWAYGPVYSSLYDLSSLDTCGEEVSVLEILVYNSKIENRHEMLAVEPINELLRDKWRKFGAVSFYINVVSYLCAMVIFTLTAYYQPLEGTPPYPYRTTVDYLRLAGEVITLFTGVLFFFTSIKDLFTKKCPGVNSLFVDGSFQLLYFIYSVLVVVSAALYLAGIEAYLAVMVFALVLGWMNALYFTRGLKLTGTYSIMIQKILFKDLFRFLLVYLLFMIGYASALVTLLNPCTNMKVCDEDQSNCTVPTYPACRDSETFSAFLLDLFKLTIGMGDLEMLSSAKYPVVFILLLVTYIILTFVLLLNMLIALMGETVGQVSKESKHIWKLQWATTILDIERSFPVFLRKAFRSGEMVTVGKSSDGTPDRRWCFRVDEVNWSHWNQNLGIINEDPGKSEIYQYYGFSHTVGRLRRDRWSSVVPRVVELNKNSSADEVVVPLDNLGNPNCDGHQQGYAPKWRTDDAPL
UniProt P58391: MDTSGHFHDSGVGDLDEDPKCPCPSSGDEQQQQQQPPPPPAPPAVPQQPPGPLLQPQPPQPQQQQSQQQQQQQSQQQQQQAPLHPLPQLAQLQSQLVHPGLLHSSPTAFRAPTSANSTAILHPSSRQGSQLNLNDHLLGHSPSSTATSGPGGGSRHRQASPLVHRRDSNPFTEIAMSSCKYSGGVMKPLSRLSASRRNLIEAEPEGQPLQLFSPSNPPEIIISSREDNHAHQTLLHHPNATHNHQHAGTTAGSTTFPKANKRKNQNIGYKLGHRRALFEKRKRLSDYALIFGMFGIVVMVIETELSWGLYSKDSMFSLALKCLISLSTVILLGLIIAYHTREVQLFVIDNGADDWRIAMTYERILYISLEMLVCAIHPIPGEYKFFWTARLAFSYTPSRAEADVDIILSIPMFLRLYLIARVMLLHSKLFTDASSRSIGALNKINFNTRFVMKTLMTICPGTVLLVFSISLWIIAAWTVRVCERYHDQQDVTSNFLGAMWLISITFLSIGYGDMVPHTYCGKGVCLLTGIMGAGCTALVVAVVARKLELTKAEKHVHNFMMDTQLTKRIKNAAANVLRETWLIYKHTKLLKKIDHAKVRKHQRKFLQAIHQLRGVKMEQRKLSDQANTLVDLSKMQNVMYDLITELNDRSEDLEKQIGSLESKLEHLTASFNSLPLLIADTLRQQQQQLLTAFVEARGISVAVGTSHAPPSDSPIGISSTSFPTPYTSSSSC
UniProt P70605: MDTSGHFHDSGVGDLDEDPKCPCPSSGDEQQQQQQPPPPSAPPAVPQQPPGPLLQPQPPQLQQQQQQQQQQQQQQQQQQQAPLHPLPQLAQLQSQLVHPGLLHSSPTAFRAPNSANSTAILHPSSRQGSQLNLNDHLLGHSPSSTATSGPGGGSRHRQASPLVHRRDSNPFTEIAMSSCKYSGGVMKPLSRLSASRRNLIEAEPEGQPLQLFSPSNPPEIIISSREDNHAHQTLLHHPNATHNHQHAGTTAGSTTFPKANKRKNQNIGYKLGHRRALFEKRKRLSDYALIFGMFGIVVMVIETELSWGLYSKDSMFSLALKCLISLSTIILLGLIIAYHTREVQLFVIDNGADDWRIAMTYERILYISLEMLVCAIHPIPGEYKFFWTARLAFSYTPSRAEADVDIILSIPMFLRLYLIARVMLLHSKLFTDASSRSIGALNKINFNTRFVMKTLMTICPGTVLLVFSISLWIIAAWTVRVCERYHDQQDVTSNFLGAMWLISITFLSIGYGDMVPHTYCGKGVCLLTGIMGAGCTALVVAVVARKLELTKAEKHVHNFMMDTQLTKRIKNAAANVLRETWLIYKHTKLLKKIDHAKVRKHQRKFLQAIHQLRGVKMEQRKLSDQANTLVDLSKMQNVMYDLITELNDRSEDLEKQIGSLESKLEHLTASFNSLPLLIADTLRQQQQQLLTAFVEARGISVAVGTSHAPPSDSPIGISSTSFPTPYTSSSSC

Experiments:
[1] = biological target: CFP-tagged TRPV4 (wild type) (UniProt Q9EPK8); test: FRET or BRET; acceptor photobleaching FRET in HEK cells co-expressing CFP-tagged TRPV4 and YFP-tagged KCa2.3 (wild type or deletions); negative control CFP and YFP as separate molecules, positive control YFP-CFP dimer
[2] = biological target: TRPV4, endogenous in mouse arterial endothelial cells (mouse (endogenous in arterial ECs)) (UniProt Q9EPK8); test: FRET or BRET; immuno-FRET on arterial sections from normotensive mice injected intravenously with AAV-Flt1-KCa2.3-17C or the AAV-Flt1 vector
[3] = biological target: TRPV4, endogenous in mouse arterial endothelial cells (mouse (endogenous in arterial ECs)) (UniProt Q9EPK8); test: co-IP; co-immunoprecipitation from mouse ECs, normal and hypertensive mice; method not shown (Appendix)
[4] = biological target: TRPV4, endogenous in mouse arterial endothelial cells (mouse (endogenous in arterial ECs)) (UniProt Q9EPK8); test: FRET or BRET; immuno-FRET with anti-TRPV4 and anti-KCa2.3 primary antibodies on arterial sections from mice: control, high-salt diet (8% NaCl), L-NNA intake, AngII delivery; also after AAV-Flt1-KCa2.3 or JNc-440 (1 mg/kg)
[5] = biological target: KCa2.3, endogenous in mouse arterial endothelial cells (mouse (endogenous in arterial ECs)) (UniProt P58391); test: co-IP; co-immunoprecipitation from mouse ECs, normal and hypertensive mice; method not shown (Appendix)
[6] = biological target: TRPV4, endogenous in mouse arterial endothelial cells (mouse (endogenous in arterial ECs)) (UniProt Q9EPK8); test: as above; remark: listed apart in the source

- binding [1]: binds
Molecule: YFP-tagged KCa2.3 (wild type) (from UniProt P70605 1-732)

- binding [2]: binds
- binding [3]: binds
- binding [4]: binds
Molecule: KCa2.3, endogenous in mouse arterial endothelial cells (from UniProt P58391 1-732)

- binding [5]: binds
- binding [6]: binds
B1: caveolin-1, endogenous in murine endothelial cells (protein, UniProt P49817 1-178)
chain: MSGGKYVDSEGHLYTVPIREQGNIYKPNNKAMADEVTEKQVYDAHTKEIDLVNRDPKHLNDDVVKIDFEDVIAEPEGTHSFDGIWKASFTTFTVTKYWFYRLLSTIFGIPMALIWGIYFAILSFLHIWAVVPCIKSFLIEIQCISRVYSIYVHTFCDPLFEAIGKIFSNIRISTQKEI

- binding [2]: binds
Molecule: RKLELTKAEKHVHNFMM [KCa2.3-17C, the 17 amino acids in the C-terminal of KCa2.3 expressed from AAV-Flt1-KCa2.3-17C]
